7 molecules from PMC5327418 can be followed below.

Sequences of proteins named here, by UniProt entry; tags and fusion partners are left off.
UniProt P32569: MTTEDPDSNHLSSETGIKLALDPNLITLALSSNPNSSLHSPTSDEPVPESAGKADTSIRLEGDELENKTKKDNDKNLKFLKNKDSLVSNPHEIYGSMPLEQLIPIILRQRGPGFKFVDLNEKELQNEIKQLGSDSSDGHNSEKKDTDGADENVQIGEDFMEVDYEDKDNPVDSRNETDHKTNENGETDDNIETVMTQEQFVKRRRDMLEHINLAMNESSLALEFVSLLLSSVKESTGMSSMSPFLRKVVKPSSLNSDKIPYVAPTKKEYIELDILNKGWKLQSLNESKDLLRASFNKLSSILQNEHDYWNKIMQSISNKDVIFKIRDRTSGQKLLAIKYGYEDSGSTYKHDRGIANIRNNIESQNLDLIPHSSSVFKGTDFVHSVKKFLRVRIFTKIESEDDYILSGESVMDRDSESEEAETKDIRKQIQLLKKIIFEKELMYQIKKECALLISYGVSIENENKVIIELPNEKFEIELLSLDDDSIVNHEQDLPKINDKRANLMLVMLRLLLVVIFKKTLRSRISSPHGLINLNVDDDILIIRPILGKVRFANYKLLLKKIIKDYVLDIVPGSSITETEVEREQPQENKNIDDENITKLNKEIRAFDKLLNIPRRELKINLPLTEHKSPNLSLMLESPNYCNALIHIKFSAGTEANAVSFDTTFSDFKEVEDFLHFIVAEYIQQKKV

This experiment concerns the target Med17-HA (S. cerevisiae (endogenous in S288c)) (UniProt P32569). In words: affinity purification with mass spectrometry; CoIP of Med17-HA on anti-HA magnetic beads from cryoground yeast lysate, 2 h at 4 °C; 20 mM HEPES pH 7.5, 300 mM KOAc, 10% glycerol, 0.01% NP-40, 6 mM MnSO4, 1 mM DTT, Cyanase nuclease; parallel control CoIP from 15N-labelled wild type cells, mixing after purification (MAP); GeLC-MS/MS, three biological replicates.

These are yes or no findings as the source states them, for the method shown. In cells and extracts the contact can be indirect. A yes stands for co-enrichment or nearness to the bait. Other partners may have been found.

B1: Tfb2 (protein, UniProt Q02939 1-513)
chain: MSDYSLKHSVTQYLEEIPQQVQNRLYTSPATCLAIYRILPPLAKFFIMAMVFNENEVPLLDLDKWVNSNGKLQFQNAIKSMKSLHLLIPNKSSGTLMINLNPTFKISLRNALTGGEVQNSFGVVVEENVVSLDLLDEYSANKWETILHFMVGTPLAKIPSEKVLNLLKHSKLMEEVNSTGEFKITNEGFQFLLQEINSQLWTLLLQYLKMIETSKMDLVDVLHFIFMLGALEVGKAYKIDALSETQRIMLQDMRDYGLVFQKHSNDSIFYPTKLALMLTSDTKTIRSASNAMDSVLRQNREEPSVNEDGANGKSTTDITTSDDLNKAGLKNQDIPDGSLIVETNFKIYSYSNSPLQIAVLSLFVHLKARFVNMVLGQITRESIRRALTNGITADQIIAYLETHAHPQMRRLAEEKLEKKLELDPNCKEPLQVLPPTVVDQIRLWQLELDRVITYEGSLYSDFETSQEYNLLSKYAQDIGVLLWKDDKKKKFFISKEGNSQVLDFAKRKLKKKQ
For B1, the binding entry is listed as “binds”.

B2: Rad25 (protein, UniProt Q00578 1-843)
chain: MTDVEGYQPKSKGKIFPDMGESFFSSDEDSPATDAEIDENYDDNRETSEGRGERDTGAMVTGLKKPRKKTKSSRHTAADSSMNQMDAKDKALLQDTNSDIPADFVPDSVSGMFRSHDFSYLRLRPDHASRPLWISPSDGRIILESFSPLAEQAQDFLVTIAEPISRPSHIHEYKITAYSLYAAVSVGLETDDIISVLDRLSKVPVAESIINFIKGATISYGKVKLVIKHNRYFVETTQADILQMLLNDSVIGPLRIDSDHQVQPPEDVLQQQLQQTAGKPATNVNPNDVEAVFSAVIGGDNEREEEDDDIDAVHSFEIANESVEVVKKRCQEIDYPVLEEYDFRNDHRNPDLDIDLKPSTQIRPYQEKSLSKMFGNGRARSGIIVLPCGAGKTLVGITAACTIKKSVIVLCTSSVSVMQWRQQFLQWCTLQPENCAVFTSDNKEMFQTESGLVVSTYSMVANTRNRSHDSQKVMDFLTGREWGFIILDEVHVVPAAMFRRVVSTIAAHAKLGLTATLVREDDKIGDLNFLIGPKLYEANWMELSQKGHIANVQCAEVWCPMTAEFYQEYLRETARKRMLLYIMNPTKFQACQFLIQYHERRGDKIIVFSDNVYALQEYALKMGKPFIYGSTPQQERMNILQNFQYNDQINTIFLSKVGDTSIDLPEATCLIQISSHYGSRRQEAQRLGRILRAKRRNDEGFNAFFYSLVSKDTQEMYYSTKRQAFLVDQGYAFKVITHLHGMENIPNLAYASPRERRELLQEVLLKNEEAAGIEVGDDADNSVGRGSNGHKRFKSKAVRGEGSLSGLAGGEDMAYMEYSTNKNKELKEHHPLIRKMYYKNLKK
Take B2: the binding entry is “binds”.

B3: Hfi1 (protein, UniProt Q12060 1-488)
chain: MSAIQSPAPKPLQPTYPAASPASTNAYMKPGLIGSPAVSNHTEPNNGNNETAEPQGPNQRIDLGAMIEELTSLLGKESWTKYAQIISLFILGKLSRKELSNELELVFSPSAASLEKSNTNHHHSLVRLHNQLLLGIFANSLRENPLGRNGNESSWGFGNGSNNPNNKLKRINKHNSQIEVYKKIVMSLPLNDRNRLKMITKEAGKRGFIFCSVFQARLNNIPKIPIVTNPESLKRVKSNNLKTPLEWSQDIMNGFNVPLASESHSLPDTDSFYLRMVGIAREHGLVGTVDARCVELISLALDQYLKNIIEFTIDTVRYRRKKYSDYYDLNESGLYKSVSEMAADKRDAKIKQLDDDKNEDECADEAKSINNGNNSSKDDIGDISMSSITKAGEAVNEELHENRTISLTNEDIYDSLSIFPNLVEPSGSYYALTNLGLVNDDELVDMKSNIDDLPDFLNEKPTFTPLDERNVGTRHELNWLIKGILTED
On to B3, for which the binding entry is listed as “binds”.

B4: Ccl1 (protein, UniProt P37366 1-393)
chain: MTDIQLNGKSTLDTPSATMSAKEKEAKLKSADENNKPPNYKRISDDDLYRHSSQYRMWSYTKDQLQEKRVDTNARAIAYIEENLLKFREAHNLTEEEIKVLEAKAIPLTMEEELDLVNFYAKKVQVIAQHLNLPTEVVATAISFFRRFFLENSVMQIDPKSIVHTTIFLACKSENYFISVDSFAQKAKSTRDSVLKFEFKLLESLKFSLLNHHPYKPLHGFFLDIQNVLYGKVDLNYMGQIYDRCKKRITAALLTDVVYFYTPPQITLATLLIEDEALVTRYLETKFPSREGSQESVPGNEKEEPQNDASTTEKNKEKSTESEEYSIDSAKLLTIIRECKSIIEDCKPPSTEEAKKIAAKNYYCQNPSTLIQKLKRKLNGEDTSSTVEKKQKT
As for B4, the binding entry is listed as “binds”.

B5: Rad3 (protein, UniProt P06839 1-778)
chain: MKFYIDDLPVLFPYPKIYPEQYNYMCDIKKTLDVGGNSILEMPSGTGKTVSLLSLTIAYQMHYPEHRKIIYCSRTMSEIEKALVELENLMDYRTKELGYQEDFRGLGLTSRKNLCLHPEVSKERKGTVVDEKCRRMTNGQAKRKLEEDPEANVELCEYHENLYNIEVEDYLPKGVFSFEKLLKYCEEKTLCPYFIVRRMISLCNIIIYSYHYLLDPKIAERVSNEVSKDSIVIFDEAHNIDNVCIESLSLDLTTDALRRATRGANALDERISEVRKVDSQKLQDEYEKLVQGLHSADILTDQEEPFVETPVLPQDLLTEAIPGNIRRAEHFVSFLKRLIEYLKTRMKVLHVISETPKSFLQHLKQLTFIERKPLRFCSERLSLLVRTLEVTEVEDFTALKDIATFATLISTYEEGFLLIIEPYEIENAAVPNPIMRFTCLDASIAIKPVFERFSSVIITSGTISPLDMYPRMLNFKTVLQKSYAMTLAKKSFLPMIITKGSDQVAISSRFEIRNDPSIVRNYGSMLVEFAKITPDGMVVFFPSYLYMESIVSMWQTMGILDEVWKHKLILVETPDAQETSLALETYRKACSNGRGAILLSVARGKVSEGIDFDHQYGRTVLMIGIPFQYTESRILKARLEFMRENYRIRENDFLSFDAMRHAAQCLGRVLRGKDDYGVMVLADRRFSRKRSQLPKWIAQGLSDADLNLSTDMAISNTKQFLRTMAQPTDPKDQEGVSVWSYEDLIKHQNSRKDQGGFIENENKEGEQDEDEDEDIEMQ
Turning to B5, the binding result is on record as “binds”.

B6: Tfb1 (protein, UniProt P32776 1-642)
chain: MSHSGAAIFEKVSGIIAINEDVSPAELTWRSTDGDKVHTVVLSTIDKLQATPASSEKMMLRLIGKVDESKKRKDNEGNEVVPKPQRHMFSFNNRTVMDNIKMTLQQIISRYKDADIYEEKRRREESAQHTETPMSSSSVTAGTPTPHLDTPQLNNGAPLINTAKLDDSLSKEKLLTNLKLQQSLLKGNKVLMKVFQETVINAGLPPSEFWSTRIPLLRAFALSTSQKVGPYNVLSTIKPVASSENKVNVNLSREKILNIFENYPIVKKAYTDNVPKNFKEPEFWARFFSSKLFRKLRGEKIMQNDRGDVIIDRYLTLDQEFDRKDDDMLLHPVKKIIDLDGNIQDDPVVRGNRPDFTMQPGVDINGNSDGTVDILKGMNRLSEKMIMALKNEYSRTNLQNKSNITNDEEDEDNDERNELKIDDLNESYKTNYAIIHLKRNAHEKTTDNDAKSSADSIKNADLKVSNQQMLQQLSLVMDNLINKLDLNQVVPNNEVSNKINKRVITAIKINAKQAKHNNVNSALGSFVDNTSQANELEVKSTLPIDLLESCRMLHTTCCEFLKHFYIHFQSGEQKQASTVKKLYNHLKDCIEKLNELFQDVLNGDGESMSNTCTAYLKPVLNSITLATHKYDEYFNEYNNNSN
B6: the binding entry was “binds”.

B7: Tfb3 (protein, UniProt Q03290 1-321)
chain: MLMDEYEENKDMCPICKTDRYLSPDVKFLVNPECYHRICESCVDRIFSLGPAQCPYKGCDKILRKNKFKTQIFDDVEVEKEVDIRKRVFNVFNKTIDDFNGDLVEYNKYLEEVEDIIYKLDHGIDVAKTEEKLRTYEELNKQLIMNNLERSRTEIESFEQRQKFEKEMKLKKRLLERQIEEEERMNKEWTKKEIVNRLSTTTQDINETIEGVKNTVKLKKSSARRKLEELNRVLKNNPYFNSNVNVQNSRLKDAVPFTPFNGDREAHPRFTLKGSVYNDPFIKDLEHRKEFIASGFNTNYAYERVLTEAFMGLGCVISEEL
For the molecule B7, the binding entry is given as “binds”.
